Data from patent US20200308281A1 (KITE PHARMA, published 2020).

Molecular target: CD19 CAR on transduced PBMCs
Assay: immunohistochemistry on FFPE cell pellets

B1: KIP-8 antibody (mAb clone 39; Clone 39-4) (antibody, V domains shown)
VH: QEQLVESGGGLVQPEGSLTLTCTASGFDLGNNWIHWVRHAPGKGLEWIACVSGSSGNIYYATWAKGRFTMSKASSTTVTLRMTSLTAADTATYFCARGWNLWGPGTLVTVSS
VL: AQVLTQTPASVSAAVGGTVTINCQASQSVYSSNLLTWYQKKPGQPPKLLIYEASKLPSGIPSRFSGSGSGTQFTLTISDVQCADAATYYCLGIYDCVLADCQAFGGGTEVVVKG
notes: Rabbit monoclonal antibody; also called clone 39 (KIP-8); Clone 39-4 vh1
binding: no binding

These are yes or no findings as the source states them, for the method shown.
